Laboratory results published in patent publication US6670136 (TRUSTEES OF COLUMBIA UNIVERSITY IN THE CITY OF NEW YORK, dated 2003).
These are yes or no findings as the source states them, for the method shown. Some results given as binding are weak or reduced against the parent protein; the word gives no strength.

Sequences of proteins named here, by UniProt entry; tags and fusion partners are left off. Residues count along the entry.
UniProt Q15109, residues 23-342: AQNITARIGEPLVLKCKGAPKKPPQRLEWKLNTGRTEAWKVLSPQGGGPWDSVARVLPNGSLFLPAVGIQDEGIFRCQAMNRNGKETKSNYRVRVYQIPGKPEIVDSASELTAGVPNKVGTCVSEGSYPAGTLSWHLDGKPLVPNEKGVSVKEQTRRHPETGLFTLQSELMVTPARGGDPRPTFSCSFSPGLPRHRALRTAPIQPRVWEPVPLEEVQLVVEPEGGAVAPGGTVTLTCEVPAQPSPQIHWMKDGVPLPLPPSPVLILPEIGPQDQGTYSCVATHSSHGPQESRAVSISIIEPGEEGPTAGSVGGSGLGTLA
UniProt Q62151, residues 23-402: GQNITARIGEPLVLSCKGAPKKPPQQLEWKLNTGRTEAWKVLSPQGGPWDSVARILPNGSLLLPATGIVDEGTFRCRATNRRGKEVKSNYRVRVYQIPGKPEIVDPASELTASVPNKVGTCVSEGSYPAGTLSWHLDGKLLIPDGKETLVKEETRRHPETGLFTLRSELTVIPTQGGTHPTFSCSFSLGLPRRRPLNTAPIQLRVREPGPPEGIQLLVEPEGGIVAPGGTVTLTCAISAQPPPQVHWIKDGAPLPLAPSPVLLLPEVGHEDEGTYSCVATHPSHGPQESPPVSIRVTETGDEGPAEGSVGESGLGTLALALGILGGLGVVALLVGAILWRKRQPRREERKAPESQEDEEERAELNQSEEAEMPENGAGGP
UniProt P10103, residues 2-215: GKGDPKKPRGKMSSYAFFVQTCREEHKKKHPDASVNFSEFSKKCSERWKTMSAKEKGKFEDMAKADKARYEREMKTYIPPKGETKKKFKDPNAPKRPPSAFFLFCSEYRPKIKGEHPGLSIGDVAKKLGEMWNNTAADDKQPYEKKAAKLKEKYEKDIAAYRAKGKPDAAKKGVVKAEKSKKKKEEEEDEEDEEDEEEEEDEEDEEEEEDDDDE

Tests used:
[1] = biological target: human soluble RAGE (sRAGE), prepared from a baculovirus expression system (human) (UniProt Q15109); assay: elution from Affi-gel with adsorbed RAGE; radioligand binding assay with 125I-sRAGE
[2] = biological target: RAGE on macrophage-like BV2 cells (macrophage (MP) RAGE) (UniProt Q62151); assay: radioligand binding on BV2 cells, data not shown

amphoterin, ≈23 kDa polypeptide eluted from the RAGE column (bovine lung extract) (from UniProt P10103 2-215) (ligand)
binding [1]: binds

B1: EN-RAGE (Extracellular Novel RAGE binding protein), recombinant bovine, expressed in Sf9 cells (ligand)
chain: TKLEDHLEGIINIFHQYSVRVGHFDTLNKRELKQLITKELPKTLQNTKDQPTIDKIFQDLDADKDGAVSFEEFVVLVSRVLKTAHIDIHK
notes: Recombinant protein made from a bovine lung cDNA in baculovirus/Sf9; In the cell assays it was unlabelled; also called radiolabelled EN-RAGE
binding [2]: binds
